Results deposited as PubChem BioAssay AID1259308 (NCATS, 2017).
In all, the deposit lists about 59,000 reagents; this is a random part of them. About 1,510 of all reagents (2.6%) count as active. 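Calls use total luciferase alone and ignore viability, so some active siRNAs may act by altering cell number.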 Unmarked entries are inactive. Further read-outs or replicates are left out here. Reagent sequences are not shown.

- Screen: 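Candidate targets for better recombinant protein yield in mammalian cells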 (primary screen)
- System: human HEK293 embryonic kidney cells stably expressing firefly luciferase (HEK-CMV-Luc2-Hygro)
- Knock-down reagent: single siRNA against human genes, 0.8 pmol siRNA per well
- Time to read-out: 72 h
- Measurement: 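Reporter luminescence and viable-cell signal on separate replicate plates, given as percent of non-targeting control and median/MAD z-scores, plus per-cell luciferase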
- Reading the numbers: total luciferase, z-score and total luciferase, % of control: higher = more reporter protein produced
- Call rule: 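An siRNA counts as active if its total luciferase robust z-score exceeds 3; genes with two or more such siRNAs out of three were retested with fresh siRNAs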
- Meaning of the calls: active = raised luciferase; inactive = no rise

For CCNQP1 [SID160725083], what does the deposit list?
total luciferase, z-score: -0.382; total luciferase, % of control: 74.3

Which result is listed for CCNQP1 [SID160725084]?
total luciferase, z-score: -0.453; total luciferase, % of control: 72.9

How did the screen score CCNQP1 [SID160764261]?
total luciferase, z-score: -0.644; total luciferase, % of control: 69.1

Which result is listed for TBXA2R [SID160717763]?
total luciferase, z-score: 0.799; total luciferase, % of control: 97.8

What is on record for TBXA2R [SID160717764]?
total luciferase, z-score: 0.366; total luciferase, % of control: 89.2

What is on record for TBXA2R [SID160717765]?
total luciferase, z-score: -1.67; total luciferase, % of control: 48.6

For MED29 [SID160733612], how do the results read?
total luciferase, z-score: -0.513; total luciferase, % of control: 71.7

What did the screen give for MED29 [SID160743844]?
total luciferase, z-score: 1.71; total luciferase, % of control: 116

For MED29 [SID160743845], how do the results read?
total luciferase, z-score: -1.6; total luciferase, % of control: 50.1

Which result is listed for PAICS [SID160728838]?
total luciferase, z-score: -0.119; total luciferase, % of control: 79.5

For PAICS [SID160728839], what was measured?
total luciferase, z-score: 0.679; total luciferase, % of control: 95.4

With PAICS [SID160728840], what does the deposit list?
total luciferase, z-score: -1.15; total luciferase, % of control: 58.9

For PAICS [SID160769147], what does the deposit list?
total luciferase, z-score: -0.862; total luciferase, % of control: 64.7

What did the screen give for PAICS [SID160769148]?
total luciferase, z-score: -0.796; total luciferase, % of control: 66.1

For PAICS [SID160769149], what was measured?
total luciferase, z-score: -0.00602; total luciferase, % of control: 81.8

For SZT2 [SID160736038], what does the deposit list?
total luciferase, z-score: -1.17; total luciferase, % of control: 58.7

Which result is listed for SZT2 [SID160736039]?
total luciferase, z-score: -0.641; total luciferase, % of control: 69.1

With SZT2 [SID160736040], what does the deposit list?
total luciferase, z-score: 0.347; total luciferase, % of control: 88.8

With SZT2 [SID160758829], what does the deposit list?
total luciferase, z-score: 0.294; total luciferase, % of control: 87.7

With SZT2 [SID160758830], how do the results read?
total luciferase, z-score: -0.136; total luciferase, % of control: 79.2

What is on record for SZT2 [SID160758831]?
total luciferase, z-score: 0.166; total luciferase, % of control: 85.2

Records above whose gene name begins with S or s (6):
SZT2 [SID160736038]: total luciferase, z-score = -1.17; total luciferase, % of control = 58.7
SZT2 [SID160736039]: total luciferase, z-score = -0.641; total luciferase, % of control = 69.1
SZT2 [SID160736040]: total luciferase, z-score = 0.347; total luciferase, % of control = 88.8
SZT2 [SID160758829]: total luciferase, z-score = 0.294; total luciferase, % of control = 87.7
SZT2 [SID160758830]: total luciferase, z-score = -0.136; total luciferase, % of control = 79.2
SZT2 [SID160758831]: total luciferase, z-score = 0.166; total luciferase, % of control = 85.2
